For at least one compound, name, drawing or mass did not settle the structure.
Experiments:
Aβ1-40 fibrils [1] = target: T1, Aβ1-40 fibrils (Homo sapiens, UniProt P05067); experiment: Thioflavin T (ThT) fluorescence assay of fibril formation; type: biochemical; details: Aβ1-40 5 μM, 37° C.; even at very low concentrations such as 1.25 μM
T1 construct: Amyloid β-peptide(1-42) and amyloid β-peptide(1-40) trifluoroacetate salts; purchased Bachem (Bubendorf, Switzerland); host or cells: synthetic peptide
Experimental: For executing the ThT florescence assay, Aβ1-40 was dissolved to a concentration of 10 μM in 10% DMSO in PBS (pH 7.4). Aβ was immediately mixed with or without different concentrations of SY-81 or SY-83 at a 1:1 ration to a final concentration of 5 μM. The samples were incubated at 37° C. and the fibrillogenesis rate was followed by thioflavin T (ThT) fluorescence assay (excitation at 450 nm, 2.5 nm slit, and emission at 480 nm, 5 nm slit), over a course of 11 days to two weeks. ThT was added to a 10-fold diluted sample and measured using a Jobin Yvon Horiba Fluoromax 3 fluorimeter.
Though there is a growing recognition that the early Aβ oligomer intermediates and not the fibrils are the most toxic amyloid forms in AD, this debate has not been completely resolved. […] This method provides quantitative information on amyloid fibrils growth. β-amyloid was allowed to form amyloid fibrils either in the presence of different concentrations of SY-83 (FIGS. 5A, C) or SY-81 (FIGS. 5B, D) or with no inhibitor (WT). The fibrillization process was followed for several days until a plateau state was reached. Fluorescence values were measured throughout.
An end point experiment was further conducted with various concentrations of SY-81 and SY-83 in order to determine IC50. An IC50 of 50 nM and 100 nM was measured for SY-81 and SY-83, respectively. […]

Sequences of proteins named here, by UniProt entry; tags and fusion partners are left off. Residues count along the entry.
UniProt P05067, 672-711 limits assumed: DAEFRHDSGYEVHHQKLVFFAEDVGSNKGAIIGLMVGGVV
UniProt P05067, 672-713 limits assumed: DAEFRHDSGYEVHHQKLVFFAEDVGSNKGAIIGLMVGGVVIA

Aβ1-40 fibrils [2] = target: T1, Aβ1-40 fibrils; experiment: Transmission electron microscopy of fibril morphology; type: biochemical; details: inhibitor 25 μM, Aβ1-40 5 μM, after 7 days (T=270 hrs)
[3] = Longevity assay in Alzheimer's Drosophila model; type: in vivo, Drosophila melanogaster; details: medium with 0.75 mg/ml, 29° C.; p<0.0001 vs untreated Aβ1-42 females
[4] = Locomotion (climbing) assay in Alzheimer's Drosophila model; type: in vivo, Drosophila melanogaster; details: medium with 0.75 mg/ml, from larval stage; p<0.00001 vs untreated
Experimental: In vivo studies (fly maintenance) were performed with Drosophila melanogaster flies grown on a standard corneal-molasses medium and kept at 25° C. As Drosophila females can store sperm cells in their bodies, crosses were conducted using virgin females collected no longer than 8 hours after eclosion at 25° C. or 18 hours after eclosion at 18° C. Adult offspring (F1) from the crosses were collected up to 9 days after the beginning of their eclosion at 25° C. in order to avoid collection of offspring from the next generation (F2). […]
The locomotion (climbing) assay was carried out in fresh rearing vials, each containing 10 flies of a given class (four classes mentioned below). […] The percent of flies which climbed to the top of the test tube was then calculated over time. […] Data were analyzed using standard ANOVA statistical exams.
In order to assess the effect of SY-81 and SY-83 in the living organism, a Drosophila model of Alzheimer's was used, based on the work of Crowther et al. (ibid) who generated transgenic flies that express the human Aβ1-42 protein conditionally, using the UAS-Gal4 expression system. […] These defects included progressive decline of locomotion in aged flies (measured as ability to climb up), and marked shortening of life span. […]
Suppression of climbing defects was assessed as detailed below in flies genotype: Gal4-elav^c155 UAS-Aβ1-42. […]

Aβ1-42 oligomers = target: T2, Aβ1-42 oligomers (Homo sapiens, UniProt P05067); experiment: Inhibition of formation of SDS-stable Aβ oligomers (Barghorn protocol, Tris-Tricine gel); type: biochemical
T2 construct: Amyloid β-peptide(1-42) and amyloid β-peptide(1-40) trifluoroacetate salts; purchased Bachem (Bubendorf, Switzerland); host or cells: synthetic peptide

With `O=C1C=C(NC(Cc2c[nH]c3ccccc23)C(=O)O)C(=O)c2ccccc21` (stereo not drawn) [SY-81] the “formation of amyloid fibrils (ThT fluorescence intensity)” value (Aβ1-40 fibrils [1]) was “significantly lowered”, the “fibril formation by TEM” value (Aβ1-40 fibrils [2]) was “marked inhibition in fibril formation” and the “survival of females expressing Aβ1-42 compared with male controls” value [3] was “nearly identical”. The “climbing behavior of females expressing Aβ1-42” value [4] was “dramatic improvement”, the “inhibition of formation of Aβ oligomers” value (Aβ1-42 oligomers; Aβ1-42, 24 hours at 37° C., concentration dependent) was “significantly inhibited” and the “lowest ratio at which inhibition was seen (Aβ1-42: quinone compound)” value (Aβ1-42 oligomers; growth of ~18 kDa intermediates into ~56 kDa toxic oligomers) was 5:1.

— patent US9272993B2, “Naphthoquinone derivatives useful for prevention of amyloid deposits and treatment of diseases involving amyloidogenesis” (TECHNOLOGY INNOVATION MOMENTUM FUND (ISRAEL) LIMITED …, priority 2008, dated 2016)
